At least one compound was matched to its structure with a doubt left. Some results were stated once for a whole list of compounds, not compound by compound.
Target: T1, Prodan-labeled G-actin (Oryctolagus cuniculus, UniProt P68135)
T1 construct: F-actin is purified from rabbit skeletal muscle using a standard protocol; Prodan (Acrylodan) fluorophore, chemical label on the thiol of Cys374; from tissue; host or cells: rabbit skeletal muscle
Assay: Prodan-G-actin titration: binding stoichiometry and dissociation constant
Design: species or system rabbit
Conditions: for Kd: Prodan-G-actin titration, read-out: dissociation constant of G-actin complex
Experimental: FIG. 2: (A), Stoichiometric binding of Prodan-labeled G-actin (1 μM) in G-buffer with KabC at final concentrations of in μm, a: 0.0; b: 0.1; c: 0.2; d: 0.3; e: 0.4; f: 0.5; g: 0.6; h: 0.7; i: 0.8; j: 0.9; k: 1.0; l: 1.1; m: 1.2; n: 1.5 (B), Plot of the integrated intensity in (A) against [KabC] yields a binding stoichiometry of 1:1.
Prodan-actin: Actin is labeled with the thiol probe, Acrylodan (Molecular Probes, Eugene, Oreg.) using a standard protocol (Marriott et al, 1988). Rabbit muscle G-actin is labeled with the thiol reactive, environmentally sensitive probe, Acrylodan, according to the inventor's earlier publication (Marriott et al, 1988). Briefly G-actin is dialyzed at 20 μM in G-buffer (2 mM Tris, 0.2 mM CaCl2, 0.2 mM ATP, pH 8.0) without dithiothreitol (DTT) and treated with a 2-fold excess of Acrylodan (Molecular Probes) freshly prepared to 20 mM in DMF. The reaction is left in the dark for 1 hr at 20° and then dialyzed overnight at 4° against G-buffer containing 1 mM DTT. The labeled conjugate is polymerized for 90 minutes at 20° by adding MgCl2 and KCl to 2 mM and 0.1 M respectively and centrifuged at 4° for 90 minutes at 100,000 g in a Beckman ultracentrifuge. The pelleted fluorescent actin conjugate is resuspended in G-buffer and dialyzed against 0.5 L G-buffer as described above. Prodan labeled G-actin is recovered from the supernatant fraction following a 100,000 g spin at 4°. […] The emission maximum of Prodan-actin shifts during the polymerization of G-actin from 496 nm to 465 nm and is accompanied by an eight-fold increase in intensity at 465 nm (Marriott et al, 1988). Prodan-actin behaves as unlabeled actin in all functional assays tested (Marriott et al, 1988; Zechel, 1993; Roy et al, 2001).
Determination of the binding stoichiometry and dissociation constants for G-actin complexes with ABPs and macrolide drugs: The change in the quantum yield and/or emission energy of Prodan-actin is used to quantify the interaction of CapG and macrolides with G-actin. The stoichiometry of the CapG-G-actin and macrolide-G-actin complex is determined by titrating Prodan-G-actin at 1 μM with increasing amounts of CapG or the macrolide from 0.1^−10 μM. The volume of the macrolide or CapG added to the titration mixture is less than 2% of the total volume. The equilibrium binding constant is determined by titrating a constant amount of Prodan labeled G-actin at 0.05˜0.1 μM in G- or F-buffer with incrementally increasing amounts of the macrolide or CapG over a range of 10 nM to 10 μM. The integrated intensity of Prodan-actin fluorescence under the spectrum is corrected for dilution effects. […] The thermodynamic parameters for the equilibrium are determined from an analysis of these binding data using a standard binding algorithm (Johnson et al, 1988).

Compound | binding stoichiometry with G-actin (Prodan-G-actin 1 μM titrated) | Kd
COC(CC1OC(=O)CC(O)C/C=C/C(=O)C(C)C(OC)c2coc(n2)-c2coc(n2)-c2coc(n2)/C=C/CCC1C)C(C)CCC(=O)C(C)C(C/C=C/N(C)C=O)OC (stereo not shown) [Hal, halichondramide] | 1:1 | ≤ 100 nM
Kabiramide C [KabC] |  | ≤ 100 nM
Ulapualide A [UlaA] |  | ≤ 100 nM

From patent US7301020B2, “Macrolide analogs and methods for identifying same” (priority 2003, dated 2007)
